{"source": "paper PMC9715504", "about": "“The blood-to-plasma ratio and predicted GABAA-binding affinity of designer benzodiazepines” (Forensic Toxicology, 2022)", "origin": "cited, not measured here", "settings": "cited from earlier work", "note": "Read-outs that look alike come from different tables or passages of the source.", "data": [{"smiles": "CN1C(=O)C(O)N=C(c2ccccc2)c2cc(Cl)ccc21", "note": "(centres unmarked) [temazepam]", "values": [{"measurement": "blood-to-plasma ratio", "setting": "calculated from literature whole blood and plasma concentrations (125-I radioimmunoassay)", "value": 0.49}, {"measurement": "blood-to-plasma ratio", "value": 0.62}]}]}
